Data published in PubChem BioAssay AID493131 (Broad Institute, 2011).
In all, about 340,000 compounds went through this assay and about 3,300 (0.97%) were called active. Only results without a clear call are listed here; the source files them as inconclusive.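 Rule for the calls: active = mean activation above about 17%, with every replicate also reaching it (limit read from the data, passing the limit was not always enough); inconclusive = only one of the two conditions met; inactive = the rest.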

By UniProt entry, the sequences of proteins in these tests, tags left out.
UniProt P13346, whole entry: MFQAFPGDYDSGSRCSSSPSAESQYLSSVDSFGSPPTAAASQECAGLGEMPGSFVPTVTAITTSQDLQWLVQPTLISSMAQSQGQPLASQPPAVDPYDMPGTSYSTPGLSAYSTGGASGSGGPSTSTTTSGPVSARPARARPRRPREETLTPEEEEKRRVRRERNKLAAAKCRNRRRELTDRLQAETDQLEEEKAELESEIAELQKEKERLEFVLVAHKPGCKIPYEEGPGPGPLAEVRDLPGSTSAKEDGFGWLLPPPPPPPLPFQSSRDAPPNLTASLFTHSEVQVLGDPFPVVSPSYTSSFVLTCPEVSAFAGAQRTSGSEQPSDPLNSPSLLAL

biological target: Protein FosB (Mus musculus) (UniProt P13346); assay: enhancers of mouse delta FosB DNA binding – biochemical, fluorescence polarization, TAMRA-CDK5 oligo, single point, primary screen (AID 493131); conditions: purified delta FosB, at 25 µM, stronger effect = higher value, percent of positive-control signal above neutral wells;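 note: fluorescence polarization rise as delta FosB binds a TAMRA Cdk5 AP-1 oligo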

Row | SMILES | activation
1 | O=C(NCC1(N2CCCCC2)CCCCC1)c1ccco1 | inconclusive: 16.1%
